In PMC6294257, “Osteocalcin triggers Fas/FasL-mediated necroptosis in adipocytes via activation of p300” (Cell Death & Disease, 2018):
These are yes or no findings as the source states them, for the method shown.

Molecular target: mixed-lineage kinase domain-like protein (MLKL) (mouse (endogenous in 3T3-L1)) (UniProt Q9D2Y4)
Test: reducing SDS-PAGE and immunoblot; 3T3-L1 adipocytes incubated with GluOC for 24 h; cell lysates prepared in the presence of 2.5% 2-mercaptoethanol; immunoblot with antibodies to MLKL

B1: mixed-lineage kinase domain-like protein (MLKL) (natural protein, mouse (endogenous in 3T3-L1), UniProt Q9D2Y4 1-472, looked up)
chain: MDKLGQIIKLGQLIYEQCEKMKYCRKQCQRLGNRVHGLLQPLQRLQAQGKKNLPDDITAALGRFDEVLKEANQQIEKFSKKSHIWKFVSVGNDKILFHEVNEKLRDVWEELLLLLQVYHWNTVSDVSQPASWQQEDRQDAEEDGNENMKVILMQLQISVEEINKTLKQCSLKPTQEIPQDLQIKEIPKEHLGPPWTKLKTSKMSTIYRGEYHRSPVTIKVFNNPQAESVGIVRFTFNDEIKTMKKFDSPNILRIFGICIDQTVKPPEFSIVMEYCELGTLRELLDREKDLTMSVRSLLVLRAARGLYRLHHSETLHRNISSSSFLVAGGYQVKLAGFELSKTQNSISRTAKSTKAERSSSTIYVSPERLKNPFCLYDIKAEIYSFGIVLWEIATGKIPFEGCDSKKIRELVAEDKKQEPVGQDCPELLREIINECRAHEPSQRPSVDGRSLSGRERILERLSAVEESTDKKV
notes: mixed-lineage kinase domain-like protein (MLKL), endogenous in 3T3-L1 adipocytes treated with GluOC; High-dose GluOC induces phosphorylation of MLKL, printed as Thr357/Ser358; these numbers may be those of human MLKL although the cells are mouse; source: endogenous, 3T3-L1 adipocyte lysate
binding: no binding (condition: with 2.5% 2-mercaptoethanol)
